Measured values as given in the supplement of paper PMC9233669.
Variants at the background level are over-represented here.

How the values were obtained:
biotinyl-Val-oxazolone = assay: self-aminoacylation, catalytic enhancement (BVO) (fold over background); higher = more active; k-Seq, kA / k0A0; sequences stand for … in GGGAAUGGAUCCACAUCUACGAAUUC…UUCACUGCAGACUUGACGAAGCUG
Summary of the method: (§1)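 Working in 50 μL HEPES/NaCl/KCl/MgCl2/CaCl2 buffer with 5% acetonitrile at pH 6.9–7.0, mutagenized RNA pools (0.43 μM; 21-nt variable region) were reacted with 2–1250 μM of each biotinyl-aminoacyl-oxazolone for 90 minutes at room temperature. Streptavidin capture followed, with quantification by triplicate qPCR and Illumina sequencing. Catalytic enhancement is reported as median kA over the uncatalyzed rate, the low-activity peak of a bimodal Gaussian fit to the data.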

biotinyl-Trp-oxazolone = assay: self-aminoacylation, catalytic enhancement (BWO) (fold over background); higher = more active; k-Seq, kA / k0A0; sequences stand for … in GGGAAUGGAUCCACAUCUACGAAUUC…UUCACUGCAGACUUGACGAAGCUG
Summary of the method: as §1

biotinyl-Met-oxazolone = assay: self-aminoacylation, catalytic enhancement (BMO) (fold over background); higher = more active; k-Seq, kA / k0A0; sequences stand for … in GGGAAUGGAUCCACAUCUACGAAUUC…UUCACUGCAGACUUGACGAAGCUG
Summary of the method: as §1

biotinyl-Phe-oxazolone = assay: self-aminoacylation, catalytic enhancement (BFO) (fold over background); higher = more active; k-Seq, kA / k0A0; sequences stand for … in GGGAAUGGAUCCACAUCUACGAAUUC…UUCACUGCAGACUUGACGAAGCUG
Summary of the method: as §1

biotinyl-Ile-oxazolone = assay: self-aminoacylation, catalytic enhancement (BIO) (fold over background); higher = more active; k-Seq, kA / k0A0; sequences stand for … in GGGAAUGGAUCCACAUCUACGAAUUC…UUCACUGCAGACUUGACGAAGCUG
Summary of the method: as §1

biotinyl-Leu-oxazolone = assay: self-aminoacylation, catalytic enhancement (BLO) (fold over background); higher = more active; k-Seq, kA / k0A0; sequences stand for … in GGGAAUGGAUCCACAUCUACGAAUUC…UUCACUGCAGACUUGACGAAGCUG
Summary of the method: as §1

Sequence | self-aminoacylation (biotinyl-Val-oxazolone) | self-aminoacylation (biotinyl-Trp-oxazolone) | self-aminoacylation (biotinyl-Met-oxazolone) | self-aminoacylation (biotinyl-Phe-oxazolone) | self-aminoacylation (biotinyl-Ile-oxazolone) | self-aminoacylation (biotinyl-Leu-oxazolone)
CCACACUUCAAGCAAUUGGAC [Fam1B.1 aminoacylation ribozyme variant] | 0.697 | 0.337 | 0.664 | 0.614 | 0.72 | 0.583
CCACACCUCUAGCAAUCGGUC [Fam1B.1 aminoacylation ribozyme variant] | 1.05 | 0.532 | 0.766 | 0.749 | 1.14 | 0.947
CUACUUCAAACAAUCGUUAUG [Fam1A.1 aminoacylation ribozyme variant] | 0.627 | 0.59 | 0.48 | 0.899 | 0.683 | 0.523
AUUACCCAGGUCAUCGAAUGA [Fam2.1 aminoacylation ribozyme variant] | 1.07 | 0.73 | 1.03 | 0.861 | 0.908 | 1.02
AUUACCCUGUUCAUCGUGUGA [Fam2.1 aminoacylation ribozyme variant] | 3.04 | 8.71 | 6.29 | 43.7 | 3.1 | 6.24
CUACUUCAGACAAUAGGUCUG [Fam1A.1 aminoacylation ribozyme variant] | 0.791 | 0.478 | 0.662 | 1.08 | 0.676 | 0.75
AACUUUGGUAAUAGUCGCAAG [Fam3.1 aminoacylation ribozyme variant] | 2.15 | 2.24 | 2.22 | 3.84 | 2.58 | 3.08
AUUAACCUACGUCAUCGGGUG [Fam2.2 aminoacylation ribozyme variant] | 3.84 | 5.8 | 6.52 | 47.5 | 3.99 | 8.3
CUACUUCAAUCAAUCUGUCUG [Fam1A.1 aminoacylation ribozyme variant] | 0.597 | 0.721 | 0.539 | 1.25 | 0.599 | 0.57
AUUACCGUGCUCAUCGAGUGA [Fam2.1 aminoacylation ribozyme variant] | 1.68 | 3.33 | 2.12 | 2.01 | 1.7 | 2.64
CCACACUUCAAUCAAUCGCUC [Fam1B.1 aminoacylation ribozyme variant] | 0.865 | 0.656 | 0.848 | 1.53 | 0.809 | 1.06
CUACUACAAACAAUUGGUCUG [Fam1A.1 aminoacylation ribozyme variant] | 0.977 | 0.749 | 0.995 | 0.799 | 0.978 | 0.92
CUAAUUCAGACAAUCGGUCUG [Fam1A.1 aminoacylation ribozyme variant] | 0.672 | 0.611 | 0.751 | 0.523 | 0.641 | 0.623
GCGCACUUCAAGCAAUCGGUC [Fam1B.1 aminoacylation ribozyme variant] | 2.2 | 29.6 | 2.04 | 41.1 | 2.12 | 2.65
AUUACUCUUGUCAUCGAGUGA [Fam2.1 aminoacylation ribozyme variant] | 3.45 | 7.7 | 6.03 | 22 | 3.58 | 6.33
CUCCUUCAAACAAUGGGUCUG [Fam1A.1 aminoacylation ribozyme variant] | 0.982 | 0.877 | 0.901 | 0.816 | 0.855 | 1.05
CUACUACAAACAAUCGGCCUG [Fam1A.1 aminoacylation ribozyme variant] | 1.09 | 0.918 | 1.05 | 1.03 | 1.36 | 1.63
CCACGCUUCAAGCAAUCAGUC [Fam1B.1 aminoacylation ribozyme variant] | 0.83 | 9.22 | 0.811 | 27.4 | 0.745 | 0.886
CUAGUUCAAACAAUCGAUCUG [Fam1A.1 aminoacylation ribozyme variant] | 0.663 | 0.622 | 0.619 | 0.99 | 0.752 | 0.641
AUGCAACUAGGUCAUCGGGUG [Fam2.2 aminoacylation ribozyme variant] | 5.58 | 8.26 | 8.13 | 56.2 | 6.38 | 9.82
AAGUUUGCAACUAGUCGCAAG [Fam3.1 aminoacylation ribozyme variant] | 0.942 | 0.893 | 0.876 | 1.35 | 0.91 | 1.45
CCACACUCCAAGCAGUCGGUC [Fam1B.1 aminoacylation ribozyme variant] | 1.49 | 1.04 | 1.04 | 0.733 | 1.32 | 1.11
AUUUCCCUGGUAAUCGAGUGA [Fam2.1 aminoacylation ribozyme variant] | 4.01 | 9.31 | 7.89 | 57.7 | 3.84 | 8.19
AUUACCAUGGUCAUCGACUGA [Fam2.1 aminoacylation ribozyme variant] | 0.731 | 0.97 | 0.963 | 0.498 | 0.883 | 0.988
AUUCACCUAGGUAAGCGGGUG [Fam2.2 aminoacylation ribozyme variant] | 1.48 | 2.31 | 2.73 | 14.3 | 1.9 | 2.75
CCAAACUUCCAGCAAUCGGUC [Fam1B.1 aminoacylation ribozyme variant] | 1.56 | 1.17 | 1.1 | 0.708 | 1.32 | 1.09

Sequence | self-aminoacylation (biotinyl-Val-oxazolone) | self-aminoacylation (biotinyl-Trp-oxazolone) | self-aminoacylation (biotinyl-Met-oxazolone) | self-aminoacylation (biotinyl-Phe-oxazolone) | self-aminoacylation (biotinyl-Ile-oxazolone) | self-aminoacylation (biotinyl-Leu-oxazolone)
GCACACUUCAUGCAAUCGGUC [Fam1B.1 aminoacylation ribozyme variant] | 1.69 | 1.68 | 1.33 | 1.61 | 1.62 | 1.33
AGUACCCUGGUCAUAGAGUGA [Fam2.1 aminoacylation ribozyme variant] | 2.48 | 4.67 | 4.15 | 15.4 | 2.33 | 4.1
CCAAACUUCAAGCAAGCGGUC [Fam1B.1 aminoacylation ribozyme variant] | 1 | 0.81 | 0.885 | 0.852 | 1.03 | 0.868
CCACACUUCAAGCAGUCGUUC [Fam1B.1 aminoacylation ribozyme variant] | 0.634 | 0.48 | 0.557 | 0.916 | 0.592 | 0.49
AUUACUCCGGUCAUCGAGUGA [Fam2.1 aminoacylation ribozyme variant] | 2.64 | 5.76 | 5.22 | 16 | 2.81 | 5.43
CCACACUUCGAGCACUCGGUC [Fam1B.1 aminoacylation ribozyme variant] | 1.89 | 1.44 | 1.06 | 0.74 | 1.49 | 1.32
AAGUCUGCUAAUAGUCUCAAG [Fam3.1 aminoacylation ribozyme variant] | 1.2 | 4.59 | 1.76 | 19.4 | 1.14 | 1.43
UCACACUUCAAGCAAACGGUC [Fam1B.1 aminoacylation ribozyme variant] | 0.792 | 0.586 | 0.682 | 0.679 | 0.639 | 0.506
AUUACCCUAGUCAUCGAGAGA [Fam2.1 aminoacylation ribozyme variant] | 0.684 | 1.13 | 0.422 | 0.623 | 0.875 | 0.689
AAGUUUGCUAACAGUGGCAAG [Fam3.1 aminoacylation ribozyme variant] | 0.841 | 0.839 | 0.904 | 1.67 | 0.656 | 0.683
AAGUUUGCUAAAAGUCGCUAG [Fam3.1 aminoacylation ribozyme variant] | 0.803 | 0.783 | 0.781 | 1.38 | 0.911 | 0.944
AAGUGUGCUAUUAGUCGCAAG [Fam3.1 aminoacylation ribozyme variant] | 1.43 | 0.997 | 1.36 | 2.19 | 1.29 | 0.947
CUACUUCAAACACUGGGUCUG [Fam1A.1 aminoacylation ribozyme variant] | 1.05 | 0.566 | 0.785 | 0.827 | 0.862 | 1.06
AUUCAGCUAGGUCGUCGGGUG [Fam2.2 aminoacylation ribozyme variant] | 2.62 | 3.08 | 3.24 | 13.1 | 2.53 | 3.24
CCACACUUCAGGCAAUCUGUC [Fam1B.1 aminoacylation ribozyme variant] | 0.573 | 0.486 | 0.47 | 0.547 | 0.459 | 0.463
CUACUUCAAAAAACCGGUCUG [Fam1A.1 aminoacylation ribozyme variant] | 0.802 | 0.764 | 0.781 | 0.752 | 0.926 | 0.58
AUUACCCUGGUCAUGGAGAGA [Fam2.1 aminoacylation ribozyme variant] | 1.18 | 1.77 | 0.941 | 1.19 | 0.877 | 1.2
AAGUUUGCUAAUAGUCGGGAG [Fam3.1 aminoacylation ribozyme variant] | 1.55 | 1.88 | 1.12 | 1.71 | 1.39 | 0.892
AAUACCCUGGUCAUCGAGGGA [Fam2.1 aminoacylation ribozyme variant] | 1.94 | 1.85 | 1.18 | 1.13 | 1.51 | 1.58
CCACUCUUUAAGCAAUCGGUC [Fam1B.1 aminoacylation ribozyme variant] | 1.09 | 0.723 | 0.816 | 0.92 | 0.915 | 0.894
AUUCACCUAGGUCAUCGUAUG [Fam2.2 aminoacylation ribozyme variant] | 0.737 | 0.207 | 0.503 | 0.528 | 0.593 | 0.553
CUACUUCAAACAAGCGGUCUC [Fam1A.1 aminoacylation ribozyme variant] | 0.842 | 0.752 | 0.837 | 1.19 | 0.815 | 0.825
AUUCUCCUAGGUCAUCUGGUG [Fam2.2 aminoacylation ribozyme variant] | 2.91 | 4.16 | 4.5 | 30 | 3.03 | 5.43
AAGUGUGAUAAUAGUCGCAAG [Fam3.1 aminoacylation ribozyme variant] | 1.25 | 1.9 | 0.967 | 0.975 | 1.29 | 1.09
ACUCACCUUGGUCAUCGGGUG [Fam2.2 aminoacylation ribozyme variant] | 5.78 | 9.04 | 6.92 | 37.8 | 4.9 | 7.85
